Reference: paper PMC4841779
Results are given in words; binding and its absence hold for the method and conditions named. A result given as binding can be weak or reduced; the word gives no strength.

By UniProt entry, the sequences of proteins in these tests, tags left out. Where a name states a change or a piece, a line headed by the entry shows the natural chain unless it says otherwise.
UniProt P20936: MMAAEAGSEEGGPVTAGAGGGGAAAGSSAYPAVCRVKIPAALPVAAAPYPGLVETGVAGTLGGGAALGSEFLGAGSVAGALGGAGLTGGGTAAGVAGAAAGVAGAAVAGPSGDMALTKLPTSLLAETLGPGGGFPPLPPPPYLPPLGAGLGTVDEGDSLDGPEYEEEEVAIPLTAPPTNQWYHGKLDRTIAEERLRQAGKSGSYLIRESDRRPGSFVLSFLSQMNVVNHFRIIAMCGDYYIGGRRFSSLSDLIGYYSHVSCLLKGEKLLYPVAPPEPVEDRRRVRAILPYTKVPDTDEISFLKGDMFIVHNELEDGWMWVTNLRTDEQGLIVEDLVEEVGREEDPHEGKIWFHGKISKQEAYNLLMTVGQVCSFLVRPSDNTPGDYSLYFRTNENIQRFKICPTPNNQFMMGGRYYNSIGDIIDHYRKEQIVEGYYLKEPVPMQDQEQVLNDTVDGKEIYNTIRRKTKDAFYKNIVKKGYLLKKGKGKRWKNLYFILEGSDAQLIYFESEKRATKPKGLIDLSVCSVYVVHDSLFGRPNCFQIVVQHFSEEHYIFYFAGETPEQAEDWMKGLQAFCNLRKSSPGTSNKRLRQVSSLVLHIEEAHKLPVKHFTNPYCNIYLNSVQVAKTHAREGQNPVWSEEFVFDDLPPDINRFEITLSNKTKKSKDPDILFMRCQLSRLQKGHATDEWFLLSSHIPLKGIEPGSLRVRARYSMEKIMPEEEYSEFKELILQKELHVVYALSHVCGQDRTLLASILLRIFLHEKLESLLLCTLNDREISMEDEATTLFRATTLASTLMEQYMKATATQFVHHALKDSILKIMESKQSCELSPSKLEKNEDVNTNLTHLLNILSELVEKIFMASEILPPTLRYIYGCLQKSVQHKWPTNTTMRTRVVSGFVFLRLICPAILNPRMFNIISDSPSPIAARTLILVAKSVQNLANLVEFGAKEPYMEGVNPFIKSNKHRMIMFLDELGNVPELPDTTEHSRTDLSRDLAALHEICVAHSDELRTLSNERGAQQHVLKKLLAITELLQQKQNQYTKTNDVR
UniProt P27986: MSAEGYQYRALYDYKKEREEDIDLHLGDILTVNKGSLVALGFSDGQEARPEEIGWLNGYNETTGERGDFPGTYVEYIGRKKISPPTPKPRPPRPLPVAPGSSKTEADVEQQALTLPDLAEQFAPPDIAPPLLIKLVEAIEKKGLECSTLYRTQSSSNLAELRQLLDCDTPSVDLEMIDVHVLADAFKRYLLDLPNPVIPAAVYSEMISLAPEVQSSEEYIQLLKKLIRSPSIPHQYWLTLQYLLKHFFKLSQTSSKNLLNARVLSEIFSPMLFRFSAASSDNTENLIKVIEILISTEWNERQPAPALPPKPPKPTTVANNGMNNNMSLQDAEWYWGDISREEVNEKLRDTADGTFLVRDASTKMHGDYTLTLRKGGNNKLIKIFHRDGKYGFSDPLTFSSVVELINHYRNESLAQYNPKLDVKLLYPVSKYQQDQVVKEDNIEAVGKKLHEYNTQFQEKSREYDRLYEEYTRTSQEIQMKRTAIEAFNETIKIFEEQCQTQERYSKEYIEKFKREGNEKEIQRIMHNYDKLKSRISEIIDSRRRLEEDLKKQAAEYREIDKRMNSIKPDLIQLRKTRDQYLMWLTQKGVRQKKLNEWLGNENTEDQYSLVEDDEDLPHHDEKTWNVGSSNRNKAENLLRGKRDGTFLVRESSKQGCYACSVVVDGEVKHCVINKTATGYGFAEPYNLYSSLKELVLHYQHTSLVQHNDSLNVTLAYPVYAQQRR

Assays:
[1] = biological target: T1, p130CAS, tyrosine-phosphorylated (doublet at 150 and 115 kDa of A431 lysate) (human (endogenous in A431)) (UniProt P56945); experiment: far-Western, overlay or dot blot; lysates of starved A431 cells stimulated with 25 ng/ml EGF (60-min time course; also 1 and 10 ng/ml EGF, or pervanadate), 20 μg per lane on LDS-PAGE, transferred to nitrocellulose; blotted 2 hr with 1–5 ng/ml recombinant GST-SH2/PTB labeled with GSH-HRP and anti-GST-HRP in 5% milk-TBST; bands identified by immunodepletion; only the binder purified
T1 sequence (chain, phosphotyrosine (sites that bind each probe not determined)): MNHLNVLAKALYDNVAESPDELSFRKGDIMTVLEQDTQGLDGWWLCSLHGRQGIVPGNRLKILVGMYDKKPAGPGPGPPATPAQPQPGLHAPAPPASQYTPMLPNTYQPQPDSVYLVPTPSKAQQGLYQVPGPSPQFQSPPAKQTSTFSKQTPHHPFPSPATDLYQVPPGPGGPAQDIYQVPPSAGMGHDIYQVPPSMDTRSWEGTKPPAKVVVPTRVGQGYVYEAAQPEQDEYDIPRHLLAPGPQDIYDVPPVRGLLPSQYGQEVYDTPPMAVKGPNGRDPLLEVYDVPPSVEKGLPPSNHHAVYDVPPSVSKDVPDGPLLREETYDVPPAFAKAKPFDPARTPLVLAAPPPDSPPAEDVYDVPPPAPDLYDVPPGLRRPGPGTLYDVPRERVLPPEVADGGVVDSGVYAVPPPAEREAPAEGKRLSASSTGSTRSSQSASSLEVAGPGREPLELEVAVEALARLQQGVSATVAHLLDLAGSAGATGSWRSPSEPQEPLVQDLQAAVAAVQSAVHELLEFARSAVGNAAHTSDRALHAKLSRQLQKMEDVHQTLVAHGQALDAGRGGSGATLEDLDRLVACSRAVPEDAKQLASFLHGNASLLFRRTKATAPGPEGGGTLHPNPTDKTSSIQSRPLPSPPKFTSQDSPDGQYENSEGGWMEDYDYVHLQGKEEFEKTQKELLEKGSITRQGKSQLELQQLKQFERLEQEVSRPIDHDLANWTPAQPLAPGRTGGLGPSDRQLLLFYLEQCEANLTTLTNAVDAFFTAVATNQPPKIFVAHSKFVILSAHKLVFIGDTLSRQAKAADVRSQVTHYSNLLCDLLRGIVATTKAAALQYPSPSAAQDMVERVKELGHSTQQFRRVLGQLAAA

[2] = biological target: T2, GAB1, tyrosine-phosphorylated (130 kDa band of A431 lysate) (human (endogenous in A431)) (UniProt Q13480); experiment: as above
T2 sequence (chain, phosphotyrosine (sites that bind each probe not determined)): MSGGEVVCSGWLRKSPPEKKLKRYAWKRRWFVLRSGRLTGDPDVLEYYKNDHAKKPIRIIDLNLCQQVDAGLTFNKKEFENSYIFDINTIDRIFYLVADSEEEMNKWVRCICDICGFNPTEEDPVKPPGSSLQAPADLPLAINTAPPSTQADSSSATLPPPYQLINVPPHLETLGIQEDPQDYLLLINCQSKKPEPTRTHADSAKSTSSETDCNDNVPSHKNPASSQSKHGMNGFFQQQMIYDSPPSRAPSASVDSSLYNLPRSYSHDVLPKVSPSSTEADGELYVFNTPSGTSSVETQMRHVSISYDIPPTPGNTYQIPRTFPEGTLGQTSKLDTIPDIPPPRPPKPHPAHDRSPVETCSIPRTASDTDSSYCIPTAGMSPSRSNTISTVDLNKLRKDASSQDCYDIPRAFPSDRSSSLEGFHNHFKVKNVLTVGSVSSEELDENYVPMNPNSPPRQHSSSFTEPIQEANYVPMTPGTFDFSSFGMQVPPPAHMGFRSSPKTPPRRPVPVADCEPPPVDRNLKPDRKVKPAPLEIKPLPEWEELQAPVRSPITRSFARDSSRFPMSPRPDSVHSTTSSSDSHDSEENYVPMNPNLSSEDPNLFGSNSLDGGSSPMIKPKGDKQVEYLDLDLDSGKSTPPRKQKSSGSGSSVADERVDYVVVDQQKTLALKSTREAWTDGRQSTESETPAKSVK

Row | binding [1] | binding [2] | Substance
1 | binds |  | GST-RASGAP natural tandem SH2 domain probe (from UniProt P20936) (domain or fragment)
2 |  | binds | GST-p85α N-terminal SH2 domain probe (from UniProt P27986) (domain or fragment)
3 |  | binds | GST-p85α natural tandem SH2 domain probe (from UniProt P27986) (domain or fragment)
